Experimental data: patent US20230192789A1, “STRUCTURALLY-STABILIZED AND HDMX-SELECTIVE P53 PEPTIDES AND USES THEREOF” (Dana-Farber Cancer Institute, Inc., priority 2020, published 2023)
“Also recorded” adds a separate entry of the source. At least one peptide structure holds a part that was inferred or is arguable (an end, a ring closure or a residue).

Columns and labels:
[1] = biological target: T1, recombinant HDM2 (amino acids 17-125 of SEQ ID NO:103) (Homo sapiens, UniProt Q00987); test: Competitive streptavidin pull-down of biotinylated peptides with 1:1 recombinant HDM2/HDMX mixture, HDM2 western; type: binding; conditions: biotinylated stapled peptide, 1:1 mixture of recombinant HDM2 and HDMX
T1 construct: hexahistidine (N); thrombin cleavage site (N); made in house; host or cells: BL21(DE3) E. coli
Experimental: For these studies, biotinylated peptides were incubated with a 1:1 mixture of recombinant HDM2 (amino acids 17-125 of SEQ ID NO: 103) and HDMX (amino acids 1-490 of SEQ ID NO: 104), followed by streptavidin pull-down and HDM2 and HDMX Western analyses. […] .

[2] = biological target: T2, recombinant HDMX (amino acids 1-490 of SEQ ID NO:104) (Homo sapiens, UniProt O15151); test: Competitive streptavidin pull-down of biotinylated peptides with 1:1 recombinant HDM2/HDMX mixture, HDMX western; type: binding; conditions: biotinylated stapled peptide, 1:1 mixture of recombinant HDM2 and HDMX
T2 construct: thioredoxin (N, cleaved yes); S tag (N, cleaved yes); hexahistidine (N, cleaved yes); made in house; host or cells: E. coli (inferred: pET32-LIC vector, handled as described for HDM2 in BL21(DE3))
T2 sequence (O15151 1-490): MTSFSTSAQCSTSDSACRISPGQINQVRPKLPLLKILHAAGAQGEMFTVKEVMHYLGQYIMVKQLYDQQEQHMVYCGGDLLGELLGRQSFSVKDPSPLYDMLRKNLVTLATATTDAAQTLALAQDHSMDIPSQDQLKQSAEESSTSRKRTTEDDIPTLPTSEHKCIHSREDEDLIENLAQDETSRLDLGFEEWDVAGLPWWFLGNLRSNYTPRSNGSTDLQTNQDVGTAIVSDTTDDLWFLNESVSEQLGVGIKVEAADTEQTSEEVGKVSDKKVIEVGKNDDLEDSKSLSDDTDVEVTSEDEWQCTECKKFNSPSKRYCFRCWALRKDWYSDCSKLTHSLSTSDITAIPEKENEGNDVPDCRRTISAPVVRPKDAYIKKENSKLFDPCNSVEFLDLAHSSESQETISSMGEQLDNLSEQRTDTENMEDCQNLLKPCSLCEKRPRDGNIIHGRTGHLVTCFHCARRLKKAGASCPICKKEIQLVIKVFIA

CC(=O)N[C@@H](CC(C)C)C(=O)N[C@H](C(=O)N[C@@H](Cc1ccccc1)C(=O)N[C@]1(C)CCCCCCC=CCCC[C@@](C)(C(=O)N[C@@H](CO)C(=O)N[C@@H](C)C(=O)N[C@@H](C)C(N)=O)NC(=O)[C@H](CCC(=O)O)NC(=O)[C@H](CCC(N)=O)NC(=O)[C@H](C)NC(=O)[C@H](Cc2c[nH]c3ccccc23)NC(=O)[C@H](Cc2ccc(O)cc2)NC(=O)[C@H](CCC(=O)O)NC1=O)[C@@H](C)O [ATSP-7041 B26E, LTF8EYWAQEXSAA]
HDM2 interaction [1]: essentially abrogate HDM2 interaction | HDMX interaction [2]: engage HDMX with greatest affinity; also recorded: decreases the overall level of HDMX interaction | HDMX versus HDM2 binding selectivity [2]: HDMX selectivity over HDM2; also recorded: HDMX-specificity
